The results in this text go back to PubChem BioAssay AID1487 (National Center for Advancing Translational Sciences (NCATS), 2009).

The list shows a part of the results. The main result of the screen is listed elsewhere. These columns were measured beside it and carry no call. Most of these compounds were active or inconclusive in the main read-out, so they are no random draw. The note in brackets gives the kind of curve behind each potency; many fits are weak.

A short description of the assay: qHTS Assay for Modulators of Lamin A Splicing. To be noted: HeLa LMNA splicing GFP/RFP minigene ratio, 48 h. The essentials: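 S3 HeLa cells stably expressing lamin A-EGFP splicing minigene plus DsRed2, 600 cells/well, 48 h compound exposure at 37C. Laser-scanning cytometry; analysed as GFP (500-530 nm)/RFP (575-640 nm) total intensity ratio; 0.5% DMSO vehicle.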
(Quantitative high-throughput screening tests each substance at several concentrations.)

The mark [1] stands for this setting: measured here: GFP splicing reporter channel.
The mark [2] stands for this setting: measured here: RFP viability control channel.

For orientation: AC50 means the concentration at which the activity in the assay is half-maximal. On to `CCC1=C(c2ccc(C)cc2)S(=O)(=O)N=C1N1CCC(C(=O)Nc2ccccc2C(=O)OC)CC1`, for which the AC50 under setting [1] is 15.8 µM [falling, single point].

`O=c1c2c3nc4ccccc4nc3n(Cc3ccccc3)c2ncn1Cc1ccco1`: the concentration at half-maximal activity (AC50) by setting is: under setting [1], 35.5 µM [falling, single point]; under setting [2], 25.1 µM [falling, single point].

Turning to `CCOC(=O)c1sc(Nc2nc3c(F)cccc3s2)cc1C`, the AC50 reads like this: under setting [1], 14.1 µM [rising, partial curve, poor fit]; under setting [2], 5.62 µM [rising, partial curve].

Take `CC(=O)Nc1ccc(NCc2nnc3n2CCCCC3)cc1`: the concentration at half-maximal activity (AC50) is 0.112 µM [rising, full curve, poor fit] under setting [1] and 14.1 µM [rising, partial curve, poor fit] under setting [2].

For the molecule `Cc1ccc(NC(=O)c2c(C)nn(-c3ccccc3)c2Cl)cc1`, the AC50 under setting [2] is 0.0282 µM [rising, full curve, poor fit].

Regarding `COC(=O)c1ccc(N2CCN(S(=O)(=O)c3ccc4ccccc4c3)CC2)c([N+](=O)[O-])c1`, the AC50 under setting [2] was 12.6 µM [rising, partial curve, poor fit].

As to `O=C(NCc1ccco1)c1cc2nc(C3CC3)cc(C(F)(F)F)n2n1`, the AC50 reads like this: under setting [1], 5.62 µM [falling, single point]; under setting [2], 4.47 µM [falling, full curve, poor fit].

With `Cc1nnc(N2CCN(C(=O)Nc3cc(F)ccc3F)CC2)c2nn(-c3ccc(Cl)cc3)c(C)c12`, the half-maximal activity concentration (AC50) under setting [1] is 12.6 µM [falling, partial curve] and the half-maximal activity concentration (AC50) under setting [2] was 11.2 µM [falling, partial curve].

Regarding `c1ccc(CCSc2ncnc3nc[nH]c23)cc1`, the concentration at half-maximal activity (AC50) is 14.1 µM [rising, partial curve] under setting [1] and 12.6 µM [rising, partial curve] under setting [2].

Consider `O=C(Nc1ccccc1)N1CCCC(c2nc(-c3cccs3)no2)C1` (stereo not drawn), for which the concentration at half-maximal activity (AC50) is, setting by setting: under setting [1], 14.1 µM [rising, single point]; under setting [2], 15.8 µM [rising, single point].

With `COc1ccc(N2CCN(C(=O)CNS(=O)(=O)c3ccc(C)c(C)c3)CC2)cc1`, the AC50 runs as follows: under setting [1], 0.0398 µM [falling, full curve, poor fit]; under setting [2], 5.01 µM [falling, single point].

`CS(=O)(=O)c1cc([N+](=O)[O-])c(Sc2nc3ccccc3[nH]2)c([N+](=O)[O-])c1`: the AC50 was 35.5 µM [falling, single point] under setting [1] and 35.5 µM [falling, single point] under setting [2].

Consider `CC1CCCN(CCC(=O)c2ccc(Br)cc2)C1` (stereo not drawn), for which the concentration at half-maximal activity (AC50) under setting [2] is 11.2 µM [rising, single point].

With `CC(/C=C1\SC(=S)N(C(C(=O)O)C(C)C)C1=O)=C\c1ccccc1` (stereo not drawn), the AC50 under setting [1] is 8.91 µM [falling, partial curve].

On to `O=C(Nc1nc(-c2ccc(S(=O)(=O)N3CCCC3)cc2)cs1)C1COc2ccccc2O1` (stereo not drawn), for which the AC50 under setting [2] was 11.2 µM [rising, partial curve].

Consider `O=C(/C=C/c1cccc([N+](=O)[O-])c1)n1cnc2ccccc21`, for which the AC50 was 0.224 µM [falling, partial curve] under setting [1] and 0.891 µM [falling, partial curve, poor fit] under setting [2].

`COc1ccccc1C(=O)NCC(=O)N/N=C/c1cn[nH]c1-c1ccccc1`: the AC50 under setting [1] is 10 µM [falling, partial curve].

Consider `Cc1c(Cl)cccc1NC(=O)CSc1nc(=O)n(CCN2CCOCC2)c2c1CCC2`, for which the half-maximal activity concentration (AC50) under setting [1] is 0.631 µM [falling, full curve, poor fit].

For `O=C(N/C(=C\c1cccs1)C(=O)N1CCOCC1)c1cccs1`, under setting [2], the AC50 is 3.16 µM [falling, full curve].

On to `O=C(/C=C/c1ccccc1)Nc1ncn[nH]1`, for which the AC50 under setting [1] is 3.16 µM [falling, partial curve] and the AC50 under setting [2] is 20 µM [falling, partial curve, poor fit].

Turning to `COC(=O)C1=C(C)N(CC2CC2)C(=O)N[C@H]1c1ccc(Br)cc1`, the half-maximal activity concentration (AC50) under setting [1] was 35.5 µM [rising, single point].

With `COc1cc(/C=N/Nc2ccc3ccccc3c2)ccc1OC(=O)c1ccco1`, under setting [2], the AC50 was 35.5 µM [rising, single point].

Turning to `CCOC(=O)Nc1ccc2c(c1)N(C(=O)CCN1CCOCC1)c1ccccc1S2=O` (stereo not drawn), the AC50 under setting [2] is 10 µM [rising, partial curve].

Take `O=C(CCCN1C(=O)C2CCCCN2C1=O)N1CCN(c2ccc([N+](=O)[O-])cc2)CC1` (stereo not drawn): under setting [2], the AC50 is 12.6 µM [rising, partial curve].

`CS(=O)(=O)Nc1cccc(-c2nc(NCc3ccccc3)c3ccccc3n2)c1`: the half-maximal activity concentration (AC50) was 20 µM [falling, single point] under setting [1] and 15.8 µM [falling, single point] under setting [2].

With `CCNC(=S)NNC(=O)CCn1cc(C)cn1`, under setting [2], the AC50 was 0.01 µM [falling, full curve, poor fit].

With `Cc1sc2nc(SCC(=O)C(C)(C)C)n(Cc3ccco3)c(=O)c2c1C`, the AC50 is 12.6 µM [falling, partial curve] under setting [1] and 6.31 µM [falling, partial curve] under setting [2].

Take `CCOC(=O)C1CCN(CC(=O)Nc2c(C(=O)OC)[nH]c3ccc(Cl)cc23)CC1`: the half-maximal activity concentration (AC50) under setting [2] is 14.1 µM [rising, single point].

As to `OC(CN1CCN(c2cccc(C(F)(F)F)c2)CC1)c1c[nH]c2ccccc12` (stereo not drawn), the half-maximal activity concentration (AC50) under setting [1] was 8.91 µM [falling, single point].

Consider `Cc1ccc2c(c1)C(c1ccncc1)=NNC(c1cccnc1)=N2`, for which the AC50 under setting [1] is 0.0316 µM [falling, full curve, poor fit] and the AC50 under setting [2] is 0.0282 µM [falling, full curve, poor fit].

With `O=C(CN1CCCC1)N1CCCC(c2ccc(F)cc2)c2ccc(F)cc21` (stereo not drawn), the AC50 under setting [1] is 0.112 µM [falling, full curve, poor fit].

Turning to `CCOC(=O)c1c(NC(=O)C(C)NCc2ccco2)sc2c1CCC(C)C2` (stereo not drawn), under setting [2], the AC50 is 12.6 µM [rising, single point].

Turning to `CC(C)C(=O)N1CCN(c2ccc(NC(=O)c3ccc(Br)o3)cc2)CC1`, the AC50 under setting [2] was 35.5 µM [rising, single point].

`CC(NC(=S)Nc1ccc([N+](=O)[O-])cc1)c1ccncc1` (stereo not drawn): the AC50 under setting [1] is 0.141 µM [rising, full curve, poor fit].
